{"source": "patent US20160122742A1", "about": "(published 2016)", "binders": {"B1": {"name": "Myc-NES-Obi1(1-280) (protein, not shown: small tags and cut ends)", "chain": "MEQKLISEEDLNEMEQKLISEEDLNEMEQKLISEEDLNEMEQKLISEEDLNEMEQKLISEEDLNEMESLGDLTMSLALKLAGLDIGSMAQTVQNVTLSLTLPITCHICLGKVRQPVICINNHVFCSICIDLWLKNNSQCPACRVPITPENPCKEIIGGTSESEPMLSHTVRKHLRKTRLELLHKEYEDEIDCLQKEVEELKSKNLSLESQIKTILDPLTLVQGNQNEDKHLVTDNPSKINPETVAEWKKKLRTANEIYEKVKDDVDKLKEANKKLKLENGGLVRENLRLKAEVDNRSPQKFGRFAVAALQSKVEQYERETNRLKKALERSDKYIEELESQVAQLKNSSEEKEAMNSICQTALSADGK"}}, "target": "T1, Flag tagged full length Obi1 protein (human) (UniProt Q5W0B1)", "T1 sequence": "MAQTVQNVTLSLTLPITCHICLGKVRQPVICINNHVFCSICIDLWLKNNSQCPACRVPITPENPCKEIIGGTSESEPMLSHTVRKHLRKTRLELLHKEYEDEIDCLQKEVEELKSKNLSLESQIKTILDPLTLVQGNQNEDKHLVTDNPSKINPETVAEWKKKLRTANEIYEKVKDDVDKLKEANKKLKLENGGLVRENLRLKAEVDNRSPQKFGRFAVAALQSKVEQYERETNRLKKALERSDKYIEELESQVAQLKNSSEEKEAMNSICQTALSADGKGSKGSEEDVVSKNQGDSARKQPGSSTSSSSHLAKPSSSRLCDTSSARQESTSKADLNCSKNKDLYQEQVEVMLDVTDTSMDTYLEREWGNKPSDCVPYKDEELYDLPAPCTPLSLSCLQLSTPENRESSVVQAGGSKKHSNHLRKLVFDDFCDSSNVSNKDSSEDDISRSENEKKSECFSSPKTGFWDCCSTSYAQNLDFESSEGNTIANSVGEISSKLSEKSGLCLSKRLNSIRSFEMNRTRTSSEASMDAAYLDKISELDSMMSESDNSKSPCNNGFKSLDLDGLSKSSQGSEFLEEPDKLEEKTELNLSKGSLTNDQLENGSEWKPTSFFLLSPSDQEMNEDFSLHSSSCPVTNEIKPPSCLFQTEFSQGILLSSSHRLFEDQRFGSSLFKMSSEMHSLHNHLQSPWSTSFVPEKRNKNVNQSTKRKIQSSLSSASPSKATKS", "assay": "anti-Flag co-immunoprecipitation from transfected U2OS cells, western blot with anti-Myc", "note": "Results are given in words; binding and its absence hold for the method and conditions named. Binding seen in cells or lysates may run through a third protein. Some binding calls cover weakened binding; strength is not graded here. Where a sequence is shown, tags or fusion partners need not be part of it."}
{"binder": "B1", "values": [{"measurement": "binding", "value": "binds"}]}
